Laboratory results from PubChem BioAssay AID651640 (Broad Institute, 2012).
Where “and” joins values, the source holds several entries; their conditions need not be identical. Equal entries are not always repeated. The campaign covered roughly 350,000 compounds. About 6,000 (1.7%) were called active. Inconclusive means that the source gave no clear call. Such entries were picked first, then a sample of the others. No stated cut-off is given here; in the data, active means CPE inhibition above about 20% (passing the limit was not always enough); inconclusive means no clear call, values can overlap the other calls; tested in BHK-21 cells. Where a structure was tested more than once in an assay, its records may differ in their call.

test: protection of cells from dengue 2 killing – plate reader, single concentration, primary screen (AID 651640); details: DENV2-infected cells, cytopathic effect rescue, at 9.99 µM, hits give high values;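 further: 0% = median of neutral control wells and 100% = median of positive control wells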

SMILES	CPE inhibition
O=C(CCN1CCCCC1)NCC[C@@H]1CC[C@@H](NS(=O)(=O)c2cccc(F)c2)[C@H](CO)O1	inconclusive: 32.2%
COc1ccc2c3c(n(C)c2c1)[C@@H](CO)N(S(C)(=O)=O)CC31CCN(C(=O)c2ccccn2)CC1	inconclusive: 50.6%
C[C@@H]1CN([C@H](C)CO)C(=O)Cc2cc(NC(=O)CCN3CCOCC3)ccc2O[C@@H]1CN(C)CC1CC1	inactive: 2.72%
O=C(COc1ccc(NC(=O)c2cccs2)cc1)c1ccc(F)cc1	inconclusive: 22.6%
CN1CCC2CC1c1cc(-c3ccc(C(F)(F)F)cc3)ccc12 (stereo not drawn)	active: 21.3%
O=C(C[C@@H]1CC[C@H](NC(=O)Nc2cccc(F)c2)[C@H](CO)O1)NCC1CC1	inconclusive: 20.5%
COc1ccc(CNC(=O)C[C@H]2C[C@H]3c4cc(NC(=O)NC5CCCC5)ccc4O[C@H]3[C@H](CO)O2)cc1	inconclusive: 31.5%
C[C@@H]1CN([C@H](C)CO)S(=O)(=O)c2ccc(-c3ccc(F)cc3)cc2O[C@H]1CN(C)C(=O)c1ccccc1F	inconclusive: 22.7%
COc1ccc(OC)c(NC(=O)c2cccc(NC(=O)c3ccccc3)c2)c1	inconclusive: 20.3%
C[C@@H]1CCCCO[C@@H](CN(C)Cc2ccc(C(=O)O)cc2)[C@H](C)CN([C@@H](C)CO)C(=O)c2cc(NC(=O)CCCN(C)C)ccc2O1	active: 38.4%
Cc1noc(C)c1NC(=O)Nc1cccc2c1O[C@H](CN(C)C(=O)Nc1ccc(C(F)(F)F)cc1)[C@@H](C)CN([C@H](C)CO)C2=O	inconclusive: 21.9%
Cc1ccc(CNC(=O)C2CCN(S(=O)(=O)c3c(C)noc3/C=C/N(C)C)CC2)cc1	inactive: -1.16%
C[C@@H]1CN([C@@H](C)CO)C(=O)c2cc(NS(=O)(=O)c3ccc(F)cc3)ccc2O[C@H]1CN(C)Cc1ccncc1	inactive: -2.09%
C[C@@H]1CCCCO[C@H](CN(C)S(=O)(=O)c2ccc(F)cc2)[C@@H](C)CN([C@H](C)CO)C(=O)c2cc(NC(=O)Nc3cccc4ccccc34)ccc2O1	active: 26.2%
CNC[C@H]1OCCCC[C@@H](C)Oc2ccc(NC(=O)Nc3cccc4ccccc34)cc2C(=O)N([C@H](C)CO)C[C@@H]1C	inactive: -1.67%
COc1ccc(NC(=O)Nc2ccc3c(c2)C(=O)N([C@@H](C)CO)C[C@H](C)[C@H](CN(C)C(=O)c2ccccc2)OCCCC[C@H](C)O3)cc1	inconclusive: 33%
C[C@@H]1CCCCO[C@@H](CN(C)Cc2ccc(C(F)(F)F)cc2)[C@H](C)CN([C@@H](C)CO)C(=O)c2cc(NS(=O)(=O)c3ccccc3)ccc2O1	inactive: 8.81%
C[C@@H]1CN([C@@H](C)CO)C(=O)c2cc(NS(=O)(=O)c3cccs3)ccc2O[C@@H](C)CCCCO[C@H]1CN(C)C(=O)c1ccccc1	inactive: 14%
N#CCCn1cc(C(=O)CN2C(=O)NC3(CCc4ccccc43)C2=O)c2ccccc21 (stereo not drawn)	active: 33.6%
C[C@H](CO)N1C[C@H](C)[C@@H](CN(C)Cc2ccccc2)Oc2c(NS(C)(=O)=O)cccc2C1=O	active: 39.1%
COc1cc(C(=O)Oc2ccc3ccc(O)cc3c2)cc(OC)c1OC	inconclusive: 22.2%
Cc1noc(C)c1NC(=O)N(C)C[C@@H]1OCCCC[C@H](C)Oc2ccc(NS(=O)(=O)c3ccccc3)cc2C(=O)N([C@@H](C)CO)C[C@@H]1C	inactive: 1.51%
O=C(NCCCn1ccnc1)c1[nH]c(C(F)(F)F)nc1-c1ccccc1	inactive: -3.85%

In another format: results already given.

| SMILES | CPE inhibition |
| --- | --- |
| Cc1ccc(CNC(=O)C2CCN(S(=O)(=O)c3c(C)noc3/C=C/N(C)C)CC2)cc1 | inactive: -1.16% |
| C[C@@H]1CN([C@@H](C)CO)C(=O)c2cc(NS(=O)(=O)c3ccc(F)cc3)ccc2O[C@H]1CN(C)Cc1ccncc1 | inactive: -2.09% |

Further results.

SMILES	CPE inhibition
O=C(/C=C/c1ccc2c(c1)OCO2)N1CCCCC1	inconclusive: 41.9%
S=c1[nH]nc(COc2ccccc2)n1/N=C/c1cccc(Cl)c1Cl	inconclusive: 30.7%
C[C@@H]1CN([C@@H](C)CO)C(=O)c2cccc(NC(=O)Nc3ccc(C(F)(F)F)cc3)c2O[C@@H]1CN(C)CC1CCCCC1	inactive: -5.91%
O=C(C[C@H]1C[C@@H]2c3cc(NC(=O)c4cccnc4)ccc3O[C@@H]2[C@@H](CO)O1)NCCc1ccccc1	inconclusive: 44.3%
COC(=O)C1=C(C)N(C)C(=NCc2cc(OC)c(OC)c(OC)c2)NC1c1cccc(Cl)c1 (stereo not drawn)	inconclusive: 29.3%
Cc1ccc(C)c(OCCC(=O)OCC(=O)NC2CC2)c1	inconclusive: 39.2%
C[C@H](CO)N1C[C@H](C)[C@@H](CN(C)C(=O)Nc2ccccc2)Oc2ccc(NC(=O)Nc3ccc(C(F)(F)F)cc3)cc2CC1=O	inactive: 14.3%
O=C(O)c1ccc(N/N=C/c2cc(Br)cs2)cc1	inactive: 3.33%
CS(=O)(=O)Nc1ccc2c(c1)[C@@H]1C[C@@H](CC(=O)NCc3ccc(-c4ccccc4)cc3)O[C@H](CO)[C@@H]1O2	inactive: -7.66%
CO[C@H]1CN(C)C(=O)c2ccc(NC(=O)Nc3cccc(F)c3)cc2OC[C@H](C)NC[C@@H]1C	inactive: -0.714%
O=C(c1cc2ccccc2o1)N1CCN(c2ccccn2)CC1	inconclusive: 20.7%
COc1ccc(S(=O)(=O)N2CC3(CN(C(=O)CN(C)C)[C@@H](CO)c4c3c3ccc(OC)cc3n4C)C2)cc1	inconclusive: 32.7%
C[C@@H]1CN([C@@H](C)CO)C(=O)c2cc(NS(=O)(=O)c3ccccc3)ccc2O[C@H]1CN(C)Cc1ccccc1	inactive: 2.4%
COc1cccc(-c2ccc(C3[C@H]4CNC[C@@H]3N4Cc3cc(F)ccc3F)cc2)c1 (stereo partly drawn)	inactive: -8.15% and inactive: -9.57%
COc1ccc2c3c(n(C)c2c1)[C@H](CO)NCC31CCN(Cc2cc(F)ccc2F)CC1	inactive: -6.42%
CO[C@@H]1CN(C)C(=O)c2cc(NS(C)(=O)=O)ccc2OC[C@@H](C)N(C(=O)CN(C)C)C[C@H]1C	inactive: -0.03%
Nc1nccnc1C(=O)OCC(=O)NCCc1ccc(Cl)cc1	inconclusive: 59.3%
CS(=O)(=O)N1[C@H](C#N)[C@@H](c2ccc(C#CC3CC3)cc2)[C@H]1CO	inactive: -4.42%
C[C@H](O)C#Cc1ccc2c(c1)O[C@H](CN(C)CC1CCCCC1)[C@H](C)CN([C@H](C)CO)S2(=O)=O	inactive: 0.151%
Cc1cc(C)c2ccc(/C=N/O)nc2c1O	inconclusive: 22.2%
NS(=O)(=O)c1cc(C(=O)OCC(=O)NC2CCCCCCC2)ccc1Cl	inconclusive: 35.5%
CC(C)N1C(=O)N(c2cccc(Cl)c2)C(C)(O)CC1(C)C (stereo not drawn)	inactive: 0.5%
O=C(Nc1ccc(Cl)cc1)C1Cc2c(-c3ccccc3)ccnc2O1 (stereo not drawn)	inconclusive: 47.6%

SMILES	CPE inhibition
CN(C(=O)c1cncc(Br)c1)c1c(N)n(Cc2ccccc2)c(=O)[nH]c1=O	inconclusive: 39.8%
C[C@@H]1CN([C@@H](C)CO)C(=O)Cc2cc(NC(=O)C3CC3)ccc2O[C@@H]1CN(C)C(=O)Nc1ccccc1	inconclusive: 20.3%
C[C@H]1CCCCO[C@@H](CN(C)C(=O)Nc2ccccc2)[C@@H](C)CN([C@@H](C)CO)C(=O)c2cc(NS(C)(=O)=O)ccc2O1	inconclusive: 22.3%
CCOC(=O)NC1(Nc2ccc(C)cc2)Oc2ccccc2O1	inconclusive: 29.7%
C[C@H]1CCCCO[C@@H](CN(C)C(=O)Nc2ccc3c(c2)OCO3)[C@@H](C)CN([C@@H](C)CO)C(=O)c2cc(NC(=O)c3ccncc3)ccc2O1	inactive: 2.08%
CC1CN(c2ccc(Oc3ccccc3)cc2)c2nc3c(c(=O)n(CC(N)=O)c(=O)n3C)n2C1 (stereo not drawn)	inconclusive: 24.7%
C[C@@H]1CN([C@@H](C)CO)C(=O)c2cc(Br)cnc2O[C@H]1CN(C)C(=O)c1ccncc1	inconclusive: 65.6%
C[C@H]1CN([C@@H](C)CO)C(=O)Cc2cc(NS(=O)(=O)c3cccs3)ccc2O[C@H]1CN(C)Cc1ccc(Oc2ccccc2)cc1	inconclusive: 37.4%
C[C@H]1CN([C@@H](C)CO)S(=O)(=O)c2ccc(C#CCN(C)C)cc2O[C@@H]1CN(C)C(=O)C1CCC1	active: 27.4%
C[C@H]1CN([C@@H](C)CO)C(=O)Cc2cc(NC(=O)C3CCCCC3)ccc2O[C@H]1CN(C)Cc1ccncc1	inconclusive: 30.2%
Cc1cccnc1NC(=O)c1ccc(NS(=O)(=O)c2ccc3[nH]c(=O)[nH]c3c2)cc1	inconclusive: 37.8%
CCOC(=O)CSC1=C(C#N)C(c2ccc(C)o2)CC(=O)N1 (stereo not drawn)	inactive: 6.59%
Cc1ccc(NC(=O)CSc2ccc3nnc(-c4ccccn4)n3n2)cc1	inconclusive: 39.3%
O=C(CCN1CCCCC1)N[C@H]1CC[C@@H](CCNS(=O)(=O)c2ccc(F)cc2)O[C@H]1CO	active: 25.3%
Cc1cccc(NC(=O)CCS(=O)(=O)c2ccccc2)n1	inconclusive: 26.7%
C[C@H]1CN([C@@H](C)CO)C(=O)c2cc(C#CCN(C)C)cnc2O[C@@H]1CN(C)C(=O)NC1CCCC1	inactive: -3.34%
COCC(=O)Nc1ccc2c(c1)C(=O)N(C)C[C@@H](OC)[C@@H](C)CN(CC1CC1)[C@@H](C)CO2	inconclusive: 25.3%
C[C@H]1CN([C@@H](C)CO)C(=O)c2cc(C#Cc3ccccn3)cnc2O[C@H]1CN(C)Cc1ccncc1	inconclusive: 60.8%
CCCCn1c(SCC(=O)Nc2nc(C)cs2)nnc1-c1cccnc1	inactive: -0.539%
NC(=O)c1ccsc1NC(=O)CS(=O)(=O)c1ccc(F)cc1	inconclusive: 54.8%
COc1ccc(C(O)P(=O)(OC(C)C)c2ccc(N(C)C)cc2)c(OC)c1 (stereo not drawn)	inconclusive: 23.8%
C[C@H](CO)N1C[C@H](C)[C@H](CN(C)S(=O)(=O)c2cccs2)OCCCC[C@H](C)Oc2ccc(NC(=O)CCC(F)(F)F)cc2C1=O	inactive: -14.2%

Five successive records from above, quoted:
SMILES	CPE inhibition
O=C(CCN1CCCCC1)N[C@H]1CC[C@@H](CCNS(=O)(=O)c2ccc(F)cc2)O[C@H]1CO	active: 25.3%
Cc1cccc(NC(=O)CCS(=O)(=O)c2ccccc2)n1	inconclusive: 26.7%
C[C@H]1CN([C@@H](C)CO)C(=O)c2cc(C#CCN(C)C)cnc2O[C@@H]1CN(C)C(=O)NC1CCCC1	inactive: -3.34%
COCC(=O)Nc1ccc2c(c1)C(=O)N(C)C[C@@H](OC)[C@@H](C)CN(CC1CC1)[C@@H](C)CO2	inconclusive: 25.3%
C[C@H]1CN([C@@H](C)CO)C(=O)c2cc(C#Cc3ccccn3)cnc2O[C@H]1CN(C)Cc1ccncc1	inconclusive: 60.8%
